{"source": "patent US20100016546A1", "about": "(priority 2005, published 2010)", "test": "general procedure: Fmoc solid-phase peptide synthesis; Wang resin", "details": "whole synthesis, scale 0.525 mmol", "note": "End groups of sequences in plain letters are not given here.", "data": [{"sequence": "KSSTRGRKSSRRKK", "values": [{"measurement": "isolated mass", "result": "approximately 39 mg"}]}]}
